Test results taken from PubChem BioAssay AID624297 (National Center for Advancing Translational Sciences (NCATS), 2012).
The campaign covered roughly 340,000 compounds. About 6,200 (1.8%) were called active. This list was built around the results that the source calls inconclusive (neither active nor inactive); the mix of calls is not that of the screen. Calls come from the whole dose curve; as a rule, active = well fitted activation curve with a large enough effect; inconclusive = small, poorly fitted or top-dose-only effect; inactive = no such curve, though single readings can be large or run the other way. Potencies beside an inconclusive call are fits to weak or partial responses and may not hold up.

Assay: A quantitative high throughput screen for small molecules that induce DNA re-replication in SW480 colon adenocarcinoma cells. For re-replication activation: % of control where 0% means no effect. Note: nearly all actives have a fitted effect of over 55% in size.
Settings: Hoechst DNA content imaging, 48 h; re-replication activation: at 46.1 µM (top of the series) unless noted
In short: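 Image-based DNA-content assay: after two days of treatment, nuclei were labelled with the DNA dye Hoechst and imaged, and hits were compounds raising the count of nuclei showing high fluorescence intensity.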
Potency is the fitted concentration of half-maximal effect.

SMILES	Potency	re-replication activation
COc1ccc2[nH]c3c(c2c1)CCN1C(=O)C(CC(=O)NCCc2ccccn2)C[C@H](C(=O)N2CCCCC2)[C@@]31CCc1ccccc1 (stereo partly drawn)	inconclusive: 29.1 µM [activator, single point]	
O=C(N/N=C/c1ccc([N+](=O)[O-])o1)c1ccc2c(c1)OCO2	inconclusive: 29.1 µM [activator, single point]	
CC(=O)c1ccc(N2CCN(Cc3cc(=O)n4c(-c5ccccc5)csc4n3)CC2)cc1	inconclusive: 6.51 µM [activator, single point]	
CCCN1CCC(=O)N(CCO)CC1		inactive: -13.8%
Cn1c(N)c(C(=O)N/N=C/c2ccccc2)sc1=S	inconclusive: 18.4 µM [activator, single point]	
Cc1cccc(/C=N/NC(=O)c2cc(Br)ccc2OCc2ccccc2)n1	inconclusive: 20.6 µM [activator, single point]	
Cc1ccccc1CN1CCCC(C(=O)Nc2ccc(-c3ccn[nH]3)cc2)C1 (stereo not drawn)	inconclusive: 20.6 µM [activator, partial curve, poor fit]	
Cc1ccc(Cn2ccsc2=NC(=O)COC(=O)c2ccc(O)cc2O)cc1	inconclusive: 2.59 µM [activator, single point]	
CC(=O)C1(O)C(C)CC2C3CC=C4CC(O)CCC4(C)C3CCC21C (stereo not drawn)		inactive: -5.81%
COc1ccc(N/C(N)=N/c2nc(C)cc(C)n2)c(OC)c1	inconclusive: 29.1 µM [activator, single point]	
Cc1cc(S(=O)(=O)Nc2ccc(C(=O)N3CC(C)OC(C)C3)cc2)ccc1F (stereo not drawn)	inconclusive: 3.26 µM [activator, full curve, poor fit]	
CC(=O)N(C(C)=O)c1c(C#N)c(C)n(-c2ccccc2)c1C(=O)c1ccccc1	inconclusive: 23.1 µM [activator, partial curve, poor fit]	
CN(CCCN1CCOCC1)C(=O)c1ccc2nc(Cc3cccc(Cl)c3)oc2c1	inconclusive: 25.9 µM [activator, single point]	
Cn1ccnc1C(=O)c1ccc(S(=O)(=O)N2CCCC2)cc1		inactive: -7.92%
Cc1cc(CN2CCCC(N3CCc4ccccc4C3)C2)cc(C)c1O (stereo not drawn)	inconclusive: 2.59 µM [activator, full curve, poor fit]	
O=C(CSc1ccccc1)Nc1ccc2sccc2c1	inconclusive: 14.6 µM [activator, single point]	
CCCC(C(=O)NC(C)(C)C)N(Cc1ccccc1Cl)C(=O)c1snc(C(N)=O)c1N (stereo not drawn)	inconclusive: 29.1 µM [activator, single point]	
CC(=O)Cc1nsc(NC(=O)c2ccc(-c3ccc(Cl)cc3Cl)o2)n1	inconclusive: 23.1 µM [activator, single point]	
CCc1nnc(N2CCN(c3ncnc4c3oc3ccccc34)CC2)s1		inactive: -4.74%
Cc1cc(C(=O)NNC(=O)Cc2ccc(Cl)cc2)c(C)o1		inactive: -31.3%
Cc1cccc(-n2cnc(C(=O)NNC(=S)Nc3ccc(Cl)cc3)c2)n1	inconclusive: 20.6 µM [activator, single point]	
CCOC(=O)c1cc(-c2ccc(C)cc2)n(CCC(=O)N2CCN(c3ccccn3)CC2)c1C		inactive: 4.28%
CCOC(=O)/C(=N\Nc1ccccc1Cl)N1CCN(Cc2ccccc2)CC1		inactive: -0.591%

SMILES	Potency	re-replication activation
Cc1c(-c2nc(N)nc(Nc3ccccc3)n2)oc2ccccc12	inconclusive: 16.4 µM [activator, single point]	
Cc1ccc(-c2csc(NC(=O)c3ccc(C)o3)n2)cc1	inconclusive: 29.1 µM [activator, partial curve, poor fit]	
O=C(/C=C/c1ccccc1)NC(NC(=S)Nc1ccc(Cl)cc1)C(Cl)(Cl)Cl (stereo not drawn)	inconclusive: 23.1 µM [activator, partial curve, poor fit]	
O=C(Nc1ncccc1O)c1ccc2c(c1)OCCO2		inactive: 17.7%
O=C(Nc1ccc(CN2CCOCC2)cc1)c1cc2ccccc2o1		inactive: -0.0523%
Cn1nc(-c2ccc(Cl)cc2)c2cc(C(=O)NC3CC3)sc21	inconclusive: 18.4 µM [activator, partial curve, poor fit]	
O=C(Nc1ccc(-n2cnnn2)cc1)C1CCCN1C(=O)Nc1ccc(Br)cc1 (stereo not drawn)	inconclusive: 23.1 µM [activator, single point]	
COCCn1c(C(C)C)nc2oc3ccccc3c(=O)c2c1=O		inactive: -4.78%
CCOC(=O)C1C(C(=O)OC)=C(c2ccc(OC)cc2)c2ccc(OC)cc2N1S(=O)(=O)C(F)(F)F (stereo not drawn)	inconclusive: 23.1 µM [activator, single point]	
O=C(CSc1nnc(COc2ccccc2)o1)NCCc1ccccc1	inconclusive: 20.6 µM [activator, partial curve, poor fit]	
CNC(=O)OCc1nc(SSC(C)(C)C)n(C)c1COC(=O)NC	active: 4.11 µM	
O=Cc1ccc(Oc2ncccn2)cc1	inconclusive: 18.4 µM [activator, single point]	
O=S(=O)(c1ccc2c(c1)OCCO2)N1CCN(S(=O)(=O)c2ccco2)CC1	inconclusive: 16.4 µM [activator, partial curve, poor fit]	
Cc1cc(C)c(C)c(S(=O)(=O)Nc2cccnc2)c1C	inconclusive: 6.51 µM [activator, partial curve, poor fit]	
Cn1sccc1=O	active: 1.64 µM	
Cc1cc(C)c(S(=O)(=O)c2ccccc2)c(Cl)n1		inactive: -5.09%
S=C1SCN(Cc2ccccn2)CN1Cc1ccco1	active: 7.31 µM	
Cc1nc(N2CCN(c3ccccn3)CC2)c2c(C)c(C(=O)Nc3ccc(F)cc3Cl)sc2n1	inconclusive: 29.1 µM [activator, single point]	
Clc1cccc(/C=N/Nc2nc(Cl)nc3ccccc23)c1	inconclusive: 32.6 µM [activator, partial curve, poor fit]	
COC(=O)[C@H](Cc1ccccc1)NC(=O)N1CCCCCC1		inactive: -4.33%
CCC1Oc2ccc(C)cc2N(CC(=O)N2CCCC2)C1=O (stereo not drawn)	inconclusive: 20.6 µM [activator, partial curve, poor fit]	
O=C(Nc1cc(C(F)(F)F)ccc1Cl)C(NCc1ccccc1)c1ccccc1 (stereo not drawn)	inconclusive: 0.92 µM [activator, full curve, poor fit]	
O=C(c1cc(-c2ccccc2)n[nH]1)N1CCc2c([nH]c3ccccc23)C1c1ccccn1 (stereo not drawn)	inconclusive: 29.1 µM [activator, partial curve, poor fit]	

In the list so far, 12 contain a Cl atom:
SMILES	Potency	re-replication activation
CN(CCCN1CCOCC1)C(=O)c1ccc2nc(Cc3cccc(Cl)c3)oc2c1	inconclusive: 25.9 µM [activator, single point]	
CCCC(C(=O)NC(C)(C)C)N(Cc1ccccc1Cl)C(=O)c1snc(C(N)=O)c1N (stereo not drawn)	inconclusive: 29.1 µM [activator, single point]	
CC(=O)Cc1nsc(NC(=O)c2ccc(-c3ccc(Cl)cc3Cl)o2)n1	inconclusive: 23.1 µM [activator, single point]	
Cc1cc(C(=O)NNC(=O)Cc2ccc(Cl)cc2)c(C)o1		inactive: -31.3%
Cc1cccc(-n2cnc(C(=O)NNC(=S)Nc3ccc(Cl)cc3)c2)n1	inconclusive: 20.6 µM [activator, single point]	
CCOC(=O)/C(=N\Nc1ccccc1Cl)N1CCN(Cc2ccccc2)CC1		inactive: -0.591%
O=C(/C=C/c1ccccc1)NC(NC(=S)Nc1ccc(Cl)cc1)C(Cl)(Cl)Cl (stereo not drawn)	inconclusive: 23.1 µM [activator, partial curve, poor fit]	
Cn1nc(-c2ccc(Cl)cc2)c2cc(C(=O)NC3CC3)sc21	inconclusive: 18.4 µM [activator, partial curve, poor fit]	
Cc1cc(C)c(S(=O)(=O)c2ccccc2)c(Cl)n1		inactive: -5.09%
Cc1nc(N2CCN(c3ccccn3)CC2)c2c(C)c(C(=O)Nc3ccc(F)cc3Cl)sc2n1	inconclusive: 29.1 µM [activator, single point]	
Clc1cccc(/C=N/Nc2nc(Cl)nc3ccccc23)c1	inconclusive: 32.6 µM [activator, partial curve, poor fit]	
O=C(Nc1cc(C(F)(F)F)ccc1Cl)C(NCc1ccccc1)c1ccccc1 (stereo not drawn)	inconclusive: 0.92 µM [activator, full curve, poor fit]	

(next part)

SMILES	Potency	re-replication activation
COc1ccccc1NC(=O)c1cccc(S(=O)(=O)N2CCN(Cc3ccccc3)CC2)c1		inactive: -91.3%
Cc1c(C(=O)NCc2ccccc2F)oc2ccccc12	inconclusive: 3.26 µM [activator, single point]	
CCOC(=O)c1cc(C#N)c(N2CCN(c3ccccn3)CC2)nc1-c1ccccc1	inconclusive: 9.2 µM [activator, partial curve, poor fit]	
O=C(/C=C/c1ccc(Br)cc1)c1ccco1	inconclusive: 23.1 µM [activator, partial curve, poor fit]	
CC(Sc1nnc(N)s1)C(=O)Nc1ccc2c(c1)OCO2 (stereo not drawn)	inconclusive: 0.116 µM [activator, partial curve, poor fit]	
CCOc1ccc2c(c1)C(c1ccc(C)o1)=NNC(c1ccncc1)=N2	inconclusive: 29.1 µM [activator, single point]	
COc1ccccc1N1CCN(Cc2cc(=O)c(OCC(=O)Nc3ccccc3)co2)CC1	inconclusive: 1.64 µM [activator, partial curve, poor fit]	
S=C(NCCc1ccc(Cl)cc1)NC1CCCCC1		inactive: 17.7%
COCCNC(=O)/C(C#N)=C/c1c(N2CCCCCC2)nc2c(C)cccn2c1=O	inconclusive: 32.6 µM [activator, partial curve, poor fit]	
CC(Sc1ccc(Cl)cc1)C(=O)Nc1ccccc1-c1ccccc1 (stereo not drawn)	inconclusive: 20.6 µM [activator, partial curve, poor fit]	
O=C1CC(SC(=Nc2ccccc2)Nc2ccccc2)C(=O)N1c1ccc(Cl)c(Cl)c1 (stereo not drawn)	inconclusive: 29.1 µM [activator, single point]	
N/C(=N\OC(=O)CCCOc1ccccc1)c1ccc([N+](=O)[O-])cc1		inactive: 4.49%
CS(=O)(=O)Nc1ccc(C2=NN(C(=O)c3ccco3)C(c3ccccc3F)C2)cc1 (stereo not drawn)		inactive: -8.53%
O=C(CC1Sc2ccccc2NC1=O)NNc1cccc(Cl)c1Cl (stereo not drawn)	inconclusive: 7.31 µM [activator, partial curve]	
CC1CCCN(Cc2c(O)ccc3c(=O)c(-c4nc5ccccc5s4)c(N)oc23)C1 (stereo not drawn)	inconclusive: 20.6 µM [activator, single point]	
O=C1/C(=C/c2ccc(O)cc2)SC(=S)N1Cc1cccnc1		inactive: 1.08%
O=C1c2ccccc2NC(c2ccc(F)cc2)N1Cc1ccccc1 (stereo not drawn)		inactive: -1.5%
COc1cc2c(cc1OC)C(c1ccc(C)cc1)NC(=O)C2 (stereo not drawn)	inconclusive: 2.91 µM [activator, single point]	
O=C1N=C(N2CCCC2)S/C1=C\C=C\c1ccccc1		inactive: -12.1%
CCOc1ccc(N2C(=O)C3=C(C(c4ccc(Cl)cc4)=NCCN3)C2c2cccnc2)cc1 (stereo not drawn)	inconclusive: 20.6 µM [activator, single point]	
O=C(OCC(=O)c1c[nH]c2ccccc12)c1ccc([N+](=O)[O-])s1	active: 20.6 µM	
CCOc1ccccc1CNC(=O)c1ccc(Sc2ccc(Cl)cc2)c(NC(C)=O)c1	inconclusive: 18.4 µM [activator, partial curve, poor fit]	
